Measured values from ChEMBL document CHEMBL4513141, “CO-ADD screening of NIH (USA) - Clinical Collection” (2021).
This is one part of the list. Entries with a potency or affinity are not part of this list. Square brackets hold non-standard residues; d marks the D form. Peptide text beside a SMILES is read from it. pGlu = O=C1CC[C@@H](C(=O)O)N1; Thz = O=C(O)[C@@H]1CSCN1

test system: Acinetobacter baumannii; conditions: Concentration 20 uM; ASSAY_TEST Inhibition of Bacterial Growth; detection method Absorption (OD600); MEDIA CAMHB; plate type 384well; NBS; CORNING #3640; time 18 hr

Point of comparison: `CC=CC(=O)N(CC)c1ccccc1C`, Inhibition 21.1%. Against it:
- Nc1ccn([C@@H]2O[C@H](CO)[C@@H](O)[C@@H]2O)c(=O)n1 [CYTARABINE] — higher, 23.86%
- Nc1nc2c(ncn2COC(CO)CO)c(=O)[nH]1 [GANCICLOVIR] — lower, 17.44%
- Cc1cccc(CCN2CCC(C(=O)c3ccc(NS(C)(=O)=O)cc3)CC2)n1.Cl.Cl — higher, 21.77%
- CC(CN1c2ccccc2Sc2ccccc21)N(C)C.Cl (configuration not stated) [PROMETHAZINE HYDROCHLORIDE] — lower, 12.59%
- CCOC(=O)O[C@]1(C(=O)OCCl)CC[C@H]2[C@@H]3CCC4=CC(=O)C=C[C@]4(C)[C@H]3[C@@H](O)C[C@@]21C [LOTEPREDNOL ETABONATE] — lower, 8.88%
- CCCNC(=O)NS(=O)(=O)c1ccc(Cl)cc1 [CHLORPROPAMIDE] — higher, 26.36%
- CC[C@H](C)C(=O)O[C@H]1CCC=C2C=C[C@H](C)[C@H](CC[C@@H]3C[C@@H](O)CC(=O)O3)[C@H]21 [MEVASTATIN] — lower, 7.81%
- Cl.O=C(O)/C=C/c1ccc(Cn2ccnc2)cc1 — lower, 7.99%
- O=C1CC[C@@H](C(=O)N2CSC[C@H]2C(=O)O)N1 [PIDOTIMOD] ([pGlu]-[Thz]-OH) — higher, 27.17%
- CCC1(c2ccccc2)C(=O)NCNC1=O [PRIMIDONE] — higher, 25.44%
- Nc1ncnc2c1ncn2[C@@H]1O[C@H](CO)[C@@H](O)[C@@H]1O [VIDARABINE] — higher, 33.05%
- NC(CO)(CO)CO.O=C(c1ccccc1)c1ccc2n1CCC2C(=O)O (configuration not stated) [KETOROLAC TROMETHAMINE] — higher, 22%
- CCOc1cc(N)c(Cl)cc1C(=O)NCC1CN(Cc2ccc(F)cc2)CCO1.O=C(O)CC(O)(CC(=O)O)C(=O)O (configuration not stated) [MOSAPRIDE CITRATE] — higher, 22.9%
- Cl.NC[C@H]1CC[C@H](C(=O)Oc2ccc(CCC(=O)O)cc2)CC1 [CETRAXATE HYDROCHLORIDE] — lower, 20.77%
- CCOC(=O)[C@H](CCc1ccccc1)N[C@@H](C)C(=O)N1[C@H](C(=O)O)C[C@@H]2CCC[C@@H]21 — higher, 26.7%
- CC(C)NCC(O)COc1ccc(CC(N)=O)cc1 (configuration not stated) [ATENOLOL] — lower, 19.94%
- Cc1[nH]cnc1CN1CCc2c(c3ccccc3n2C)C1=O.Cl [ALOSETRON HYDROCHLORIDE] — lower, 10.49%
- Cc1ccc(-c2cc(C(F)(F)F)nn2-c2ccc(S(N)(=O)=O)cc2)cc1 [CELECOXIB] — lower, 15.77%
- C[C@@H]1CN(CCCn2c3ccccc3c3ccccc32)C[C@H](C)N1.Cl.O — lower, 9.18%
- Cl.Clc1ccccc1CN1CCc2sccc2C1 [TICLOPIDINE HYDROCHLORIDE] — lower, 14.4%
- CC(Cc1ccccc1)(NC(=O)CN)c1ccccc1.Cl (configuration not stated) [REMACEMIDE HYDROCHLORIDE] — lower, 18.89%
- CNCC(O)c1ccc(O)c(O)c1 (configuration not stated) [RACEPINEPHRINE] — lower, 4%
- CC(C)Oc1ccc2c(=O)c(-c3ccccc3)coc2c1 [IPRIFLAVONE] — higher, 25.6%
- CC(=O)Nc1nnc(S(N)(=O)=O)s1 [ACETAZOLAMIDE] — higher, 21.28%
- CCCCC(=O)O[C@H]1CC[C@H]2[C@@H]3CCc4cc(O)ccc4[C@H]3CC[C@]12C [ESTRADIOL VALERATE] — higher, 28.64%
- CC(COc1ccccc1)NC(C)C(O)c1ccc(O)cc1.Cl (configuration not stated) [ISOXSUPRINE HYDROCHLORIDE] — higher, 22.97%
- COc1ccc(Cl)cc1C(=O)NCCc1ccc(S(=O)(=O)NC(=O)NC2CCCCC2)cc1 [GLYBURIDE] — lower, 12.14%
- CN(C)CCCN1c2ccccc2CCc2ccc(Cl)cc21.Cl [CLOMIPRAMINE HYDROCHLORIDE] — higher, 30.63%
- COc1cc2nc(N3CCN(C(=O)C4COc5ccccc5O4)CC3)nc(N)c2cc1OC (configuration not stated) [DOXAZOSIN] — higher, 24.9%
- Cc1cccc(C)c1OCC(C)N.Cl (configuration not stated) [MEXILETINE HYDROCHLORIDE] — higher, 22.29%
- Cn1nnc2c(C(N)=O)ncn2c1=O [TEMOZOLOMIDE] — lower, 5.77%
- Nc1nc(N)c2nc(-c3ccccc3)c(N)nc2n1 — lower, 11.64%
- CC(C)(C)NC[C@H](O)COc1nsnc1N1CCOCC1.O=C(O)/C=C\C(=O)O [TIMOLOL MALEATE] — lower, 8.85%
- C[C@H](CS)C(=O)N1CCC[C@H]1C(=O)O [CAPTOPRIL] — higher, 30%
- O=S(=O)([O-])CCS.[Na+] [MESNA] — higher, 26.36%
- CC(C)[C@H](N)C(=O)OCCOCn1cnc2c(=O)nc(N)[nH]c21.Cl [VALACYCLOVIR HYDROCHLORIDE] — lower, 7.25%
- Cl.Nc1c2c(nc3ccccc13)CCCC2 [TACRINE HYDROCHLORIDE] — higher, 30.66%
- CCOC(=O)c1ccc(OC(=O)CCCCCN=C(N)N)cc1.CS(=O)(=O)O — higher, 25.93%
- O=C(O)c1cccnc1 [NIACIN] — higher, 23.01%
- CCN(CC)CCNC(=O)c1ccc(N)cc1.Cl [PROCAINAMIDE HYDROCHLORIDE] — lower, 8.37%
- NNC(=O)c1ccncc1 [ISONIAZID] — lower, 18.82%
- Cl.OC(CCN1CCCC1)(c1ccccc1)C1CCCCC1 (configuration not stated) [PROCYCLIDINE HYDROCHLORIDE] — higher, 23.66%
- COc1ccc(-c2cc(=O)c3c(OC)c(OC)c(OC)c(OC)c3o2)cc1OC [NOBILETIN] — lower, 16.27%
- COc1cc(OC)c(C(=O)CCCN2CCCC2)c(OC)c1.Cl — lower, 20.1%
- CC1(C)S[C@@H]2[C@H](NC(=O)[C@H](N)c3ccc(O)cc3)C(=O)N2[C@H]1C(=O)O [AMOXICILLIN] — higher, 22.8%
- CNNCc1ccc(C(=O)NC(C)C)cc1.Cl [PROCARBAZINE HYDROCHLORIDE] — lower, 16.44%
- CC[N+](C)(CC)CCOC(=O)C(O)(c1ccccc1)C1CCCCC1.[Br-] (configuration not stated) [OXYPHENONIUM BROMIDE] — higher, 27.96%
- CC(C(=O)[O-])c1ccc(CC2CCCC2=O)cc1.[Na+] (configuration not stated) [LOXOPROFEN SODIUM] — higher, 25.96%
- CN(C)[C@@H]1C(=O)C(C(=O)NCN2CCCC2)=C(O)[C@@]2(O)C(O)=C3C(=O)c4c(O)cccc4[C@@](C)(O)C3CC12 (some centres not stated) — lower, 12.28%
- CC(=O)OCC(=O)[C@@]1(O)CC[C@H]2[C@@H]3C[C@H](C)C4=CC(=O)C=C[C@]4(C)[C@H]3[C@@H](O)C[C@@]21C [METHYLPREDNISOLONE ACETATE] — lower, 10.16%
- CCCCC(=O)N(Cc1ccc(-c2ccccc2-c2nnn[nH]2)cc1)[C@H](C(=O)O)C(C)C — lower, 5.64%
- CN1CCC(=C2c3ccccc3CCc3sccc32)CC1.O=C(O)/C=C\C(=O)O — higher, 24.13%
- CCOC(=O)C1=C(C)NC(C)=C(C(=O)OC)C1c1cccc(Cl)c1Cl (configuration not stated) [FELODIPINE] — higher, 21.16%
- O=C([O-])Cc1ccccc1Nc1c(Cl)cccc1Cl.[Na+] [DICLOFENAC SODIUM] — lower, 11.66%
- C=C[C@H]1CN2CC[C@H]1C[C@@H]2[C@@H](O)c1ccnc2ccc(OC)cc12 [QUINIDINE] — lower, 15.14%
- O=C1Nc2ccc(Cl)cc2[C@@](C#CC2CC2)(C(F)(F)F)O1 [EFAVIRENZ] — lower, 17.76%
- COC1=CC(=O)C[C@@H](C)[C@]12Oc1c(Cl)c(OC)cc(OC)c1C2=O [GRISEOFULVIN] — higher, 27.35%
- COc1cc(N)c(Cl)cc1C(=O)N[C@@H]1CCN(CCCOc2ccc(F)cc2)C[C@@H]1OC.O [(R,S)-CISAPRIDE MONOHYDRATE] — lower, 3.65%
- CS(=O)(=O)O.Cc1ccc(NC(=O)c2ccc(CN3CCN(C)CC3)cc2)cc1Nc1nccc(-c2cccnc2)n1 [IMATINIB MESYLATE] — lower, 20.85%
- CCCC(CCC)C(=O)O [VALPROIC ACID] — lower, 7.03%
- CN(C)CC[C@@H](c1ccc(Cl)cc1)c1ccccn1.O=C(O)/C=C\C(=O)O [DEXCHLORPHENIRAMINE MALEATE] — lower, 8.4%
- CCc1ccc(CCOc2ccc(CC3SC(=O)NC3=O)cc2)nc1.Cl (configuration not stated) [PIOGLITAZONE HYDROCHLORIDE] — lower, 5.47%
- C[C@H]1O[C@@H](O[C@H]2[C@@H](O)C[C@H](O[C@H]3[C@@H](O)C[C@H](O[C@H]4CC[C@@]5(C)[C@H](CC[C@@H]6[C@@H]5C[C@@H](O)[C@]5(C)C(C7=CC(=O)OC7)CC[C@]65O)C4)O[C@@H]3C)O[C@@H]2C)C[C@H](O)[C@@H]1O (some centres not stated) — lower, 15.68%
- COc1ccccc1OCCNCC(O)COc1cccc2[nH]c3ccccc3c12 (configuration not stated) [CARVEDILOL] — higher, 34.02%
- CC(C)c1nc(CN(C)C(=O)N[C@H](C(=O)N[C@@H](Cc2ccccc2)C[C@H](O)[C@H](Cc2ccccc2)NC(=O)OCc2cncs2)C(C)C)cs1 [RITONAVIR] — higher, 28.09%
- Cl.O.OC[C@H]1O[C@@H](n2cnc3c(N[C@H]4CCC[C@@H]4O)ncnc32)[C@@H](O)C1O (some centres not stated) — lower, 18.05%
- CC(C)[C@H]1CC[C@H](C(=O)N[C@H](Cc2ccccc2)C(=O)O)CC1 [NATEGLINIDE] — higher, 34.99%
- COc1nc(C)nc(Cl)c1NC1=NCCN1.Cl [MOXONIDINE HYDROCHLORIDE] — lower, 8.86%
- Cl.Nc1nc2ccc(OC(F)(F)F)cc2s1 — higher, 24.39%
- CCN1CCCC1CNC(=O)c1cc(S(=O)(=O)CC)c(N)cc1OC (configuration not stated) [AMISULPRIDE] — lower, 17.5%
- C/C=C1/[C@H]2C=C(C)C[C@]1(N)c1ccc(O)nc1C2 — higher, 21.75%
